These are yes or no findings as the source states them, for the method shown. Binding seen in cells or lysates may run through a third protein. Some entries that bind do so weakly or less than the wild type.
Experiments:
eYFP-WRN(L-C) (human) [1] = target: eYFP-WRN(L-C) (human) (UniProt Q14191); assay: co-IP; eYFP-WRN variants precipitated from HEK293 extracts 24 h after transfection with the anti-eYFP antibody on magnetic beads (lysis buffer with Benzonase and RNase A); Western blot for DNA-PKc, KU86, KU70, PARP1; cells with or without 40 uM hydroquinone
[2] = target: eYFP-WRN Leu1074-Arg1367 variant (human) (UniProt Q14191); assay: as above
eYFP-WRN(F-R) (human) [3] = target: eYFP-WRN(F-R) (human) (UniProt Q14191); assay: as above
[4] = target: eYFP-WRN Phe1074-Cys1367 variant (human) (UniProt Q14191); assay: as above
eYFP-WRN(L-C) (human) [5] = target: eYFP-WRN(L-C) (human) (UniProt Q14191); assay: co-IP; eYFP-WRN(L-C) and eYFP-WRN(F-R) precipitated from transfected WRN-deficient WS fibroblasts AG11395B with an antibody against YFP and magnetic beads, 2 h in a cold room; no Benzonase or RNase A in the lysis buffer (50 mM Tris-HCl pH 8.0, 150 mM NaCl, 1.0% NP-40, 0.1% SDS, 0.5% sodium deoxycholate); Western blot
eYFP-WRN(F-R) (human) [6] = target: eYFP-WRN(F-R) (human) (UniProt Q14191); assay: as above

The chains behind the UniProt entries cited, without tags or fusion partners. Where a name states a change or a piece, a line headed by the entry shows the natural chain unless it says otherwise.
UniProt Q14191: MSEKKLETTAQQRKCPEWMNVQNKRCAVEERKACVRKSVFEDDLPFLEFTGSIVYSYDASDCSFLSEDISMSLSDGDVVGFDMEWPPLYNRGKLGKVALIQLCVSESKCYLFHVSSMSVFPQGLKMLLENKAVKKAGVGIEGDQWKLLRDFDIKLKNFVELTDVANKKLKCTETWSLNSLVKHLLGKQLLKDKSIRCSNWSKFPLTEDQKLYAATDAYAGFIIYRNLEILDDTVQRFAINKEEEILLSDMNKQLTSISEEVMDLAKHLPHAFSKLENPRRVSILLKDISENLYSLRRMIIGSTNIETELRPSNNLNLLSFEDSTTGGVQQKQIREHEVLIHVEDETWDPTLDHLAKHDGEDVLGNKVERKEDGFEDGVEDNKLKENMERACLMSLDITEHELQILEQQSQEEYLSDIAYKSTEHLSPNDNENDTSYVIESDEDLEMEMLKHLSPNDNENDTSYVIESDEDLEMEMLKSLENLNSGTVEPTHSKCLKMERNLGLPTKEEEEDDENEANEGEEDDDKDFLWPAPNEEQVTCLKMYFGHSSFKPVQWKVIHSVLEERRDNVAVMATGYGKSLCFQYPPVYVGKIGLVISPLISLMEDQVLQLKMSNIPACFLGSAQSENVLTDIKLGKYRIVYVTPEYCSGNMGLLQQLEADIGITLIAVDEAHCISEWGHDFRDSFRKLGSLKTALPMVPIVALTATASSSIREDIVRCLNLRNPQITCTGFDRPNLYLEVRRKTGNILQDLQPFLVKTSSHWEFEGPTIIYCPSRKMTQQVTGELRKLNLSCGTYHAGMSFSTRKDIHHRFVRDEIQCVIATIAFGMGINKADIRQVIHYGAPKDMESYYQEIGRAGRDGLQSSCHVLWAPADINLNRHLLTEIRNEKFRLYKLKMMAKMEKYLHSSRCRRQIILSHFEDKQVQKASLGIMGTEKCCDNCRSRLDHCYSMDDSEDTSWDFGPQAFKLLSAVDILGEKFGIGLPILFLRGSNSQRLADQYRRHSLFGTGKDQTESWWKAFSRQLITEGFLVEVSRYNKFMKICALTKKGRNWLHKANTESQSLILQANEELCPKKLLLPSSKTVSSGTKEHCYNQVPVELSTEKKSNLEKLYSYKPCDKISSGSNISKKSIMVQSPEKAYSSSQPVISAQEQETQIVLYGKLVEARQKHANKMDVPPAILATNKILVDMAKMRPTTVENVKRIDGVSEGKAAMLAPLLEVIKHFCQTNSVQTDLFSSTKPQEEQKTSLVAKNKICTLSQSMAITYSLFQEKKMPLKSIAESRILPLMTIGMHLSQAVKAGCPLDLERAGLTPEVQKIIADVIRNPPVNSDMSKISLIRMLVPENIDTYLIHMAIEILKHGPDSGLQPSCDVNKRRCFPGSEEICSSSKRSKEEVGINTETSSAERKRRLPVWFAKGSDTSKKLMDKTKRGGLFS
UniProt P78527: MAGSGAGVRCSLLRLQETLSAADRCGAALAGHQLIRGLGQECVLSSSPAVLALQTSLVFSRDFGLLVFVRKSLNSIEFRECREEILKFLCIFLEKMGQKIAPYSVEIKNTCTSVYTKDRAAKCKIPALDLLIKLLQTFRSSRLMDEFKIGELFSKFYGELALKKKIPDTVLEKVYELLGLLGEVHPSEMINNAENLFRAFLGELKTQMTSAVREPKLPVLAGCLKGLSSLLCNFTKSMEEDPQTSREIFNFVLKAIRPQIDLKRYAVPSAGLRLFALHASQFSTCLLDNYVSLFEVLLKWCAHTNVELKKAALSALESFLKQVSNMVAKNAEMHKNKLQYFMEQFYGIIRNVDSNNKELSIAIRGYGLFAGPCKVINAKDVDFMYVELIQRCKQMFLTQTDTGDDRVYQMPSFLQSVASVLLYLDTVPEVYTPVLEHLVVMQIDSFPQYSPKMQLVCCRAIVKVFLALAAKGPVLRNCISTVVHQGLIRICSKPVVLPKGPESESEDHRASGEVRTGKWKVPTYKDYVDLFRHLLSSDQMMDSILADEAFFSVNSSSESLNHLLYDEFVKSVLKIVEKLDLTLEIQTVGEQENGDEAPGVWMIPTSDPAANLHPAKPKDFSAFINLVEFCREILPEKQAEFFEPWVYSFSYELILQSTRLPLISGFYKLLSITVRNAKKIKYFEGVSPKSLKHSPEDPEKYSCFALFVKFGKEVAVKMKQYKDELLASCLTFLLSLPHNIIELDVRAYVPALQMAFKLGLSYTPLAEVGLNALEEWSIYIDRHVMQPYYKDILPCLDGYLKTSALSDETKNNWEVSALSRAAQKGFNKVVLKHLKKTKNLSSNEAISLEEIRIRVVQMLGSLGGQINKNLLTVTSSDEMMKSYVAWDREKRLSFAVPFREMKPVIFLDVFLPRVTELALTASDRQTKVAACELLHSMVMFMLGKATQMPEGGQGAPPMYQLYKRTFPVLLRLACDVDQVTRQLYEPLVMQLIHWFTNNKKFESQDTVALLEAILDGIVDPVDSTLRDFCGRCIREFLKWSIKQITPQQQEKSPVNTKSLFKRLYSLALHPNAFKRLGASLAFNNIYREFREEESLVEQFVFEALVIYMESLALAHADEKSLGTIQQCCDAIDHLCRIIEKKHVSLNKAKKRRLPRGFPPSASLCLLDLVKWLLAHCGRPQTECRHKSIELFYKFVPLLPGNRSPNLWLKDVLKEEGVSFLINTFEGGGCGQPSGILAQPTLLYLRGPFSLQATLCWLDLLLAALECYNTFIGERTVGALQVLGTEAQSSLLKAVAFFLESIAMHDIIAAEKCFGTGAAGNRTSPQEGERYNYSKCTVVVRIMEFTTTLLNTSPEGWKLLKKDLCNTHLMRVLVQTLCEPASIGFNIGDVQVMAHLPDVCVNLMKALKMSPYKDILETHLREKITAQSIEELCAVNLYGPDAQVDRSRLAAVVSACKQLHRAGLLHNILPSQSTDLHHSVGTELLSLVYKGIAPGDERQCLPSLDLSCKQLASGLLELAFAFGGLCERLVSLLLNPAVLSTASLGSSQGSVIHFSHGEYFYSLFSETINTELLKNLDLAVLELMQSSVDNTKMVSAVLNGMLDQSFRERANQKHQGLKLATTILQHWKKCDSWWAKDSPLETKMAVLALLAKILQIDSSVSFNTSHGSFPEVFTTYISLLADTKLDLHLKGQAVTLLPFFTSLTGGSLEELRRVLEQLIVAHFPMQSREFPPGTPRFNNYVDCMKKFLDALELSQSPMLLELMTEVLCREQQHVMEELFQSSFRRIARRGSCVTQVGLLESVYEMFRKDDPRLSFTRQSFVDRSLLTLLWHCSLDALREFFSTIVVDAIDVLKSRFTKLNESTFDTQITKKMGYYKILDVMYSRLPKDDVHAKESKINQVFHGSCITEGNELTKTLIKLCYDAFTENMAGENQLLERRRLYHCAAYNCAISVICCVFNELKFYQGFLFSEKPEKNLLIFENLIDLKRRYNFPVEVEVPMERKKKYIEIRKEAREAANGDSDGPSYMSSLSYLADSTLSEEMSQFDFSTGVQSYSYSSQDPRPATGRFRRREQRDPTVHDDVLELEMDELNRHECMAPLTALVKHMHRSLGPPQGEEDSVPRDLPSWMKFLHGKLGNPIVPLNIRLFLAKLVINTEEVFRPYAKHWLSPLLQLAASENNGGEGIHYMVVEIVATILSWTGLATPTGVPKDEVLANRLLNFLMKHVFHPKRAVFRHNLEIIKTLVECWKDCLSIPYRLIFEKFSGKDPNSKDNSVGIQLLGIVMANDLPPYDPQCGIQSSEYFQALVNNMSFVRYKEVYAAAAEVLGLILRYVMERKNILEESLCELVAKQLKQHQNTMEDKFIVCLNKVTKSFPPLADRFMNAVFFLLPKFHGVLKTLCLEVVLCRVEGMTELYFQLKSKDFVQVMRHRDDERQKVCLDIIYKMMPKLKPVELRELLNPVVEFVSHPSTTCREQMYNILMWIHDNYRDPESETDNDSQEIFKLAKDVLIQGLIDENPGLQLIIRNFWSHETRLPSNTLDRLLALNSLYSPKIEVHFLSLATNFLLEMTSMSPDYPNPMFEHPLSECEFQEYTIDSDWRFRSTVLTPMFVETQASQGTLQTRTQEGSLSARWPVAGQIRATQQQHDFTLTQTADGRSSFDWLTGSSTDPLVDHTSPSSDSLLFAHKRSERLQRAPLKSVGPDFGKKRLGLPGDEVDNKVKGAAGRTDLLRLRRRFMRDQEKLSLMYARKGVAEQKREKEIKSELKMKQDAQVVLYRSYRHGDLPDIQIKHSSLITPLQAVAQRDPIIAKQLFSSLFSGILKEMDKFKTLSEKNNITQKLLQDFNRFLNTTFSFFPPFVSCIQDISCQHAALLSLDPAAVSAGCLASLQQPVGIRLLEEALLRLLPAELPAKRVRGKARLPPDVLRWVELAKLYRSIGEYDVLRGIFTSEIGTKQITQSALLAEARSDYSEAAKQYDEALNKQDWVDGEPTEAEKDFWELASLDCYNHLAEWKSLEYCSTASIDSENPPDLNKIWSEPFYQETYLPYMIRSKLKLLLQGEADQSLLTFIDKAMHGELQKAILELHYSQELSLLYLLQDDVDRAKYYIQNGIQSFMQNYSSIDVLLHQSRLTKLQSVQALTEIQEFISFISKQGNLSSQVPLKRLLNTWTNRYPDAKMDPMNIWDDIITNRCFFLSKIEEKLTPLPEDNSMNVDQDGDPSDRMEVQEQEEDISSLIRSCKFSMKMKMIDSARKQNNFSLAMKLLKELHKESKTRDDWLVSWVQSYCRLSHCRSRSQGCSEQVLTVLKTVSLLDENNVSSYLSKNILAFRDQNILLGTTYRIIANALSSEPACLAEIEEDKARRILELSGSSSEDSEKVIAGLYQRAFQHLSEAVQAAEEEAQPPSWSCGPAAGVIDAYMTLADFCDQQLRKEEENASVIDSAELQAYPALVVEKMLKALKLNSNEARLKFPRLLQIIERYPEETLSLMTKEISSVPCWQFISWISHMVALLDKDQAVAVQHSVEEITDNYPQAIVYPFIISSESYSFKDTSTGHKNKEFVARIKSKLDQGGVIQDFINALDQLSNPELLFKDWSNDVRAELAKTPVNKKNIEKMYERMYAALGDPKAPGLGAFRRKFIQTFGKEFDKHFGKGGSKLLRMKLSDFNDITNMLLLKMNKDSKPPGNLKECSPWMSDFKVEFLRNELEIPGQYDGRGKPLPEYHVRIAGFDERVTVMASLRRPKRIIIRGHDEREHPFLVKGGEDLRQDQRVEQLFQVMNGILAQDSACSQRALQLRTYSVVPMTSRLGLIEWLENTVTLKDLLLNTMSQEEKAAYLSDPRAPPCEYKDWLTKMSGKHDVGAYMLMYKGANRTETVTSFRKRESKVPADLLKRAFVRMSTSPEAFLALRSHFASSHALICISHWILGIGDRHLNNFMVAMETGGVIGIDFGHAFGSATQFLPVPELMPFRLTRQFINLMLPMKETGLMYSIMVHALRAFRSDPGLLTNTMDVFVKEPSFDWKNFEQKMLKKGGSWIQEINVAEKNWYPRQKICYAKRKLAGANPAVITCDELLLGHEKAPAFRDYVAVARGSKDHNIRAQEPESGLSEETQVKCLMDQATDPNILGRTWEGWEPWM
UniProt P09874: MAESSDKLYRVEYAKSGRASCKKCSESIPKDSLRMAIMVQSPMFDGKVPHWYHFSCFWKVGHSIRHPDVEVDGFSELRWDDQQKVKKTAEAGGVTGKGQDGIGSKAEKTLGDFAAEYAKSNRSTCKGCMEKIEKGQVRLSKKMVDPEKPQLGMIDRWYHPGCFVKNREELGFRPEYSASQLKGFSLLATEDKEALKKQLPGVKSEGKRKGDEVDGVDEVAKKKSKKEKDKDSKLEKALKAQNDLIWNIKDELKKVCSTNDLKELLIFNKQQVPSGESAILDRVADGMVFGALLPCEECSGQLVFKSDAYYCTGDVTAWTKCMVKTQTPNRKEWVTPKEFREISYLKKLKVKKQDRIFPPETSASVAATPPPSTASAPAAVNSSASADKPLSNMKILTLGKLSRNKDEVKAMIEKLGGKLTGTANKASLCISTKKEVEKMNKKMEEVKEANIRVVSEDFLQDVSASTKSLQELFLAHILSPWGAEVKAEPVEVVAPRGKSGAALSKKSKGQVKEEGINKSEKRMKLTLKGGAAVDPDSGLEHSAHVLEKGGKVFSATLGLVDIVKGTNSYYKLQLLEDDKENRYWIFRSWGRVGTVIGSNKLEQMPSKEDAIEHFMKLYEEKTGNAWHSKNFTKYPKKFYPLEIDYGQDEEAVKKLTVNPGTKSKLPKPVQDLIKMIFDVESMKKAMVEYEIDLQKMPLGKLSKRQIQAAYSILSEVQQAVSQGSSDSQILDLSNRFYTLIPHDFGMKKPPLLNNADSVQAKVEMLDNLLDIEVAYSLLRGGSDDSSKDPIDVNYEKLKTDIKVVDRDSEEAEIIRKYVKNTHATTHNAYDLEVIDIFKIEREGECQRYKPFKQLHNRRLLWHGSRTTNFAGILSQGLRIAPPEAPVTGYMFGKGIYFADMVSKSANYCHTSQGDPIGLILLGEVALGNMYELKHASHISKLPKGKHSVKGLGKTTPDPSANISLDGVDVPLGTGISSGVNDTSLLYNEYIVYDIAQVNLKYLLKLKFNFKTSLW

binding (eYFP-WRN(L-C) (human) [1]) | binding [2] | binding (eYFP-WRN(F-R) (human) [3]) | binding [4] | binding (eYFP-WRN(L-C) (human) [5]) | binding (eYFP-WRN(F-R) (human) [6]) | Substance
binds weakly | binds | binds | binds | binds weakly | binds | DNA-dependent protein kinase catalytic subunit (from UniProt P78527 1-4128)
binds | binds | binds | binds | binds weakly | binds | Poly(ADP-ribose) polymerase 1 (from UniProt P09874 1-1014)

From article PMC5349866
